Measured values as given in PubChem BioAssay AID540256 (National Center for Advancing Translational Sciences (NCATS), 2011).
The whole screen tested about 300,000 compounds, of which about 3,700 (1.2%) were called active. The shares of active, inactive and inconclusive entries below differ from those in the screen. Calls follow the shape of the full dose curve; tested in HEK293 cells. Where the call is inconclusive, the potency comes from a doubtful curve fit.
Potency is read from the fitted curve at half-maximal effect.

Experiment: qHTS for Inhibitors of binding or entry into cells for Lassa Virus; also: nearly all actives have a fitted effect of over 50% in size
Settings: Lassa virus pseudotype entry inhibition, cell reporter; series mostly up to 37.9 µM
In the case of `CCN(CC)c1nc(-c2ccc(C(C)(C)C)cc2)nc2ccccc12`, the Potency is reported as active: 12.6 µM.
For `FC(F)(F)c1cccc(N2CCN(Cc3ccoc3)CC2)c1`, the Potency was inconclusive: 20.6 µM [inhibitor, single point].
For `COc1cc(NC(=O)c2ccc(C(C)(C)C)cc2)c(OC)cc1NC(=O)CN1CCCCC1`, the Potency was active: 10 µM.
In the case of `Cc1cc(C)nc(N/N=C/c2cccc3ccccc23)n1`, the Potency is reported as “inactive”.
In the case of `COc1ccc(N2CCN(C(=O)c3cc4c(-c5ccccc5F)nn(C)c4s3)CC2)cc1`, the Potency is reported as inconclusive: 11.2 µM [inhibitor, single point].
For `COc1ccc(/C=N/Nc2nnc(-c3ccccc3)c(=O)[nH]2)cc1`, the Potency was inconclusive: 4.47 µM [activator, partial curve].
For `COc1ccc(NC(=O)COc2cccc3c2OC(C)(C)C3)c(OC)c1`, the Potency was inconclusive: 35.5 µM [inhibitor, single point].
For `COc1ccccc1N1CCN(C(=O)c2c(-c3ccccc3Cl)noc2C)CC1`, the Potency was inconclusive: 35.5 µM [inhibitor, single point].
In the case of `Cc1[nH]n2c(=O)c3c(nc2c1-c1ccc(F)cc1)CCCC3`, the Potency is reported as “inactive”.
With `CCOC(=O)C1=C(CC)Nc2ccccc2N=C1NC(=O)c1ccc(C)c(S(=O)(=O)N2CCOCC2)c1` the Potency was “inactive”.
With `CN1C[C@@H]2C[C@@H](c3cccn3-c3nccs3)N3CCC[C@@]23C1=O` the Potency was inconclusive: 15.8 µM [inhibitor, single point].
In the case of `CC1CCCN(CC(=O)NNC(=O)COc2ccc(Br)cc2)C1` (stereo not given), the Potency is reported as inconclusive: 1.26 µM [inhibitor, single point].
With `O=c1nc2sc3ccccc3n2c(=O)n1-c1cccc(Cl)c1` the Potency was inconclusive: 0.794 µM [activator, single point].
In the case of `Cc1ccc(/C=N/Nc2ccc(Cl)c(C(=O)O)c2)s1`, the Potency is reported as inconclusive: 0.58 µM [activator, partial curve, poor fit].
With `COc1cc(N2C(=O)C=CC2=O)c(OC)cc1Cl` the Potency was inconclusive: 35.5 µM [inhibitor, single point].
For `COc1ccccc1NS(=O)(=O)c1cccc(NC(=O)NC2CCCCC2)c1`, the Potency was inconclusive: 1.12 µM [inhibitor, full curve].
In the case of `N#Cc1nc(COc2ccccc2F)oc1N1CCCCCC1`, the Potency is reported as “inactive”.
For `COc1ccc2[nH]c(CN3CCN(CC(C)C)C(CCO)C3)c(C)c2c1` (stereo not given), the Potency was inconclusive: 35.5 µM [inhibitor, single point].
With `Cc1ccc(C)c(NC(=O)CSc2c(C)n[nH]c2C)c1` the Potency was inconclusive: 35.5 µM [activator, single point].
For `O=C(Nn1c(C2CC2)nc2ccccc2c1=O)c1ccco1`, the Potency was inconclusive: 32.6 µM [inhibitor, single point].
With `Cc1cccc(C2=NNC(=O)C(c3ccc(Cl)cc3)C2)c1` (stereo not given) the Potency was inconclusive: 22.4 µM [inhibitor, single point].
In the case of `COc1cccc(NC(=O)CN(C)C(=O)c2ccccc2OCC(=O)Nc2cccc(C(F)(F)F)c2)c1`, the Potency is reported as “inactive”.
For `CC(OC(=O)c1ccco1)C(=O)Nc1ccc(Cl)cn1` (stereo not given), the Potency was “inactive”.
In the case of `CCn1ccnc1CN1CCCC(C(=O)c2ccc3cc(OC)ccc3c2)C1` (stereo not given), the Potency is reported as inconclusive: 35.5 µM [inhibitor, single point].
For `COc1ccc(C(c2nnnn2Cc2ccccc2)N2CCN(C(=O)c3ccco3)CC2)cc1` (stereo not given), the Potency was inconclusive: 25.1 µM [inhibitor, single point].
With `O=C(NCCO)c1cccc(Nc2nc(-c3ccccc3)c3cc(Cl)ccc3n2)c1` the Potency was inconclusive: 18.3 µM [inhibitor, partial curve, poor fit].
With `COC(=O)C1CN(C(=O)COc2ccc(C)cc2)c2ccccc2O1` (stereo not given) the Potency was “inactive”.
For `CC(C)[C@H](NS(=O)(=O)c1ccccc1)C(=O)OCc1cc([N+](=O)[O-])cc2c1OCOC2`, the Potency was inconclusive: 12.6 µM [inhibitor, single point].
With `CCOC(=O)c1c(C)[nH]c(C=Nc2ccc(OC)cc2)c1O` the Potency was inconclusive: 2 µM [activator, full curve].
For `O=C(Nc1ccc(Br)c(Cl)c1)c1ccco1`, the Potency was “inactive”.
With `Cc1[nH]c2ccc(-c3nnc(SCC(=O)NCc4ccco4)n3Cc3ccccc3)cc2c1C` the Potency was inconclusive: 5.62 µM [inhibitor, partial curve, poor fit].
In the case of `COC(=O)c1ccc(NC(=O)Cc2ccc(F)cc2)cc1`, the Potency is reported as “inactive”.
With `c1ccc(-c2nc3ccccc3[nH]2)nc1` the Potency was inconclusive: 16.4 µM [inhibitor, single point].
In the case of `Cc1cccc(N2CCN(C(=O)c3c(-c4ccccc4)noc3C)CC2)c1C`, the Potency is reported as inconclusive: 0.794 µM [inhibitor, full curve, poor fit].
With `COc1ccc(C(=O)Nc2cc(C)c(NC(=O)c3ccccc3OC)cn2)cc1` the Potency was inconclusive: 35.5 µM [inhibitor, single point].
For `C/C(Cn1nnc2ccccc21)=N\NC(=O)c1cccc(Br)c1`, the Potency was “inactive”.
With `COc1cc(OC)c(NC(=O)c2c(C)oc3ncn(C)c(=O)c23)cc1Cl` the Potency was “inactive”.
For `Cc1ccc(C)c(NC(=O)COC(=O)COc2cccc3c2OC(C)(C)C3)c1`, the Potency was “inactive”.
With `Cc1ccsc1C(=O)N1CCCC(N(C)Cc2ccccc2)C1` (stereo not given) the Potency was inconclusive: 35.5 µM [inhibitor, single point].
With `O=C(CSc1ccc(-c2ccccn2)nn1)Nc1ccc(F)c(F)c1` the Potency was inconclusive: 35.5 µM [inhibitor, single point].
In the case of `Cc1noc(C)c1COc1ccccc1C(=O)NNC(=O)c1ccccc1F`, the Potency is reported as “inactive”.
With `O=C(COC(=O)Cc1ccsc1)Nc1ccc(Cl)cc1F` the Potency was inconclusive: 6.31 µM [inhibitor, single point].
For `Cc1nn(CC(=O)Nc2ccc(Cl)c(S(=O)(=O)N(C)C)c2)c(C)c1[N+](=O)[O-]`, the Potency was inconclusive: 20 µM [inhibitor, single point].
For `COc1ccc(NC(=O)COc2ccccc2C)cc1S(=O)(=O)N1CCCCC1`, the Potency was inconclusive: 35.5 µM [inhibitor, single point].
In the case of `Cc1cc(C)nc(SCCn2c(N3CCCCC3)nc3c2c(=O)n(C)c(=O)n3C)n1`, the Potency is reported as inconclusive: 29.1 µM [inhibitor, single point].
For `CC1(c2ccccc2)CC(C)(C)N(C(=O)C2CCCO2)c2ccccc21` (stereo not given), the Potency was “inactive”.
In the case of `Cc1ccc(O)c(NC(=S)NC(=O)/C=C/c2ccco2)c1`, the Potency is reported as inconclusive: 5.01 µM [inhibitor, full curve, poor fit].
In the case of `Cc1nn(-c2ccc(F)cc2)c(-n2cccc2)c1C(=O)N1CCN(c2ccc(F)cc2)CC1`, the Potency is reported as “inactive”.
With `CNC[C@H](O)c1cccc(O)c1` the Potency was inconclusive: 4.11 µM [inhibitor, single point].
For `Cc1ccc(N(CC(=O)N2CC(=O)Nc3ccccc32)S(=O)(=O)c2ccc3c(c2)OCCO3)cc1`, the Potency was inconclusive: 2.91 µM [inhibitor, full curve, poor fit].
For `COc1ccc(NC(C)=O)cc1NC(=O)CN1CCN(C2c3ccccc3-c3ccccc32)CC1`, the Potency was inconclusive: 25.1 µM [inhibitor, single point].
With `Cc1onc(-c2ccccc2Cl)c1C(=O)OCC(=O)N1CCCc2ccccc21` the Potency was “inactive”.
For `Cc1noc(C)c1S(=O)(=O)N(Cc1ccccc1)C(C)C`, the Potency was inconclusive: 22.4 µM [inhibitor, single point].
In the case of `N=C(N)SCCc1cnc[nH]1`, the Potency is reported as inconclusive: 16.4 µM [activator, single point].
In the case of `Cc1c(NC(=O)c2cc([N+](=O)[O-])ccc2N2CCOCC2)cccc1-c1nc2ccccc2o1`, the Potency is reported as inconclusive: 3.16 µM [inhibitor, single point].
For `COC(=O)C(Cc1ccc(N(CCCl)CCCl)cc1)N=Cc1ccccc1O` (stereo not given), the Potency was inconclusive: 1.26 µM [inhibitor, partial curve, poor fit].
In the case of `O=P(C(Cl)Cl)(N1CCOCC1)N1CCOCC1`, the Potency is reported as “inactive”.
In the case of `Clc1ccc(Cn2cc(/C=N/n3cnnc3)c3ccccc32)cc1`, the Potency is reported as inconclusive: 35.5 µM [inhibitor, single point].
For `O=C(COC(=O)c1cc2ccccc2cc1O)Nc1cccnc1Cl`, the Potency was “inactive”.
For `Cc1ccc(/C=N/NC(=O)c2ccc3nc[nH]c3c2)o1`, the Potency was “inactive”.
With `Cc1ccc(C)c(NC(=O)CCC(=O)OC(C(=O)c2ccccc2)c2ccccc2)c1` (stereo not given) the Potency was inconclusive: 23.1 µM [activator, single point].
In the case of `CSc1ccccc1NC(=O)c1cnc2sc(C)cn2c1=O`, the Potency is reported as inconclusive: 0.224 µM [activator, full curve, poor fit].
With `COc1ccc(OCCOC(=O)c2cccs2)cc1` the Potency was “inactive”.
In the case of `CN(C)CCNC(=O)C1CCN(c2nc3ccccc3[nH]2)CC1`, the Potency is reported as inconclusive: 4.47 µM [inhibitor, single point].
In the case of `O[C@H]1C[C@H](c2ccc(Cl)cc2)N(CC2CCCCC2)C[C@H]1n1cc(C2CC2)nn1`, the Potency is reported as inconclusive: 0.0315 µM [inhibitor, full curve, poor fit].
In the case of `O=C(O)CCc1nn2c3ccccc3n(CC(=O)c3cccs3)c2nc1=O`, the Potency is reported as inconclusive: 22.4 µM [activator, single point].
In the case of `CC(NC(N)=O)C(=O)OCc1ccc(Cl)cc1Cl` (stereo not given), the Potency is reported as inconclusive: 0.461 µM [activator, partial curve, poor fit].
In the case of `CCOC(=O)c1cnc2c(C(F)(F)F)cccc2c1N1CCN(C)CC1`, the Potency is reported as “inactive”.
For `CCOC(=O)/C=C1\SCC(=O)N1CC(=O)Nc1ccc2c(c1)CCC2`, the Potency was inconclusive: 25.9 µM [inhibitor, single point].
For `O=C(Nc1ccc(N2CCCCC2)cc1)c1ccc(F)cc1F`, the Potency was active: 10 µM.
